# Laboratory results reported in PubChem BioAssay AID1671190 (National Center for Advancing Translational Sciences (NCATS), 2021).
# Chains of the proteins cited; added tags and fusions are not shown. Lines headed by an entry give the natural chain unless they say otherwise; changes in a name come on top.
# UniProt P18054: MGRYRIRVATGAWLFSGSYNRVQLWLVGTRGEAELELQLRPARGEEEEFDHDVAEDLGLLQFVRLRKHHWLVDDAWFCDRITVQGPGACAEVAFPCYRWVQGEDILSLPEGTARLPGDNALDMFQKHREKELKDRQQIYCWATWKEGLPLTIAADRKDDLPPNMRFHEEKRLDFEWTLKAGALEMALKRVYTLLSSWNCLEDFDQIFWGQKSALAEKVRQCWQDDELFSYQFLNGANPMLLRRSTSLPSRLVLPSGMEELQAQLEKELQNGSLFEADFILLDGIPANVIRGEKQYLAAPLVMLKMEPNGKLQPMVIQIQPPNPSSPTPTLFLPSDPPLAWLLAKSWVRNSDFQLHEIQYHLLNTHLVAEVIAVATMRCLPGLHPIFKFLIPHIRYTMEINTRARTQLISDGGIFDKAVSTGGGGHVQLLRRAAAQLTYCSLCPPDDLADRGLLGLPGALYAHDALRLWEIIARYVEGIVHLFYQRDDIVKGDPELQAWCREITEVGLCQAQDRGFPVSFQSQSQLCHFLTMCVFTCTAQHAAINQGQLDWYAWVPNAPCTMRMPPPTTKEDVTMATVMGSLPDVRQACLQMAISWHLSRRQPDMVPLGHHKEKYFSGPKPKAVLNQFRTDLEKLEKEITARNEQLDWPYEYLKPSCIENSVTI
# “And” between values parts separate entries of the source, which are not always exact repeats. Equal entries are not always repeated. Out of some 580,000 compounds screened, about 6,100 (1.1%) were called active. This list was built around the results that the source calls inconclusive (neither active nor inactive); the mix of calls is not that of the screen. Calls come from the whole dose curve; as a rule, active = well fitted inhibition curve with a large enough effect; inconclusive = small, poorly fitted or top-dose-only effect, or another doubt; inactive = no such curve, though single readings can be large or run the other way. A potency beside an inconclusive call is a rough fit, not a confirmed value.
# Molecular target: Polyunsaturated fatty acid lipoxygenase ALOX12 (Homo sapiens) (UniProt P18054)
# Assay: Primary qHTS assay for inhibitors of human arachidonate 12S-lipoxygenase (ALOX12): Round 2
# Settings: purified 12hLO, xylenol orange hydroperoxide absorbance; activity change, negative = inhibition: at 108 µM (top of the series) unless noted
# In short: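 Hydroperoxide product was detected by ferrous iron/xylenol orange as the 573 to 405 nm absorbance ratio. Arachidonic acid at 40 uM (final) was turned over for 30 min at room temperature by 150 nM human 12hLO, pH 7.0 Hepes buffer, after 15 min compound preincubation.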
# % is set by controls: 0 for no effect and ±100 for the full control effect; potency is the fitted concentration of half-maximal effect.
Compound,"activity change, negative = inhibition",Potency
COc1ccccc1C1SCCN1S(=O)(=O)c1cccc(C(F)(F)F)c1 (stereo not given),inactive: -15.3%,–
O=C(c1ccccc1)c1ccc(O)c(O)c1O,–,"inconclusive: 4.47 µM [inhibitor, full curve, poor fit]"
CCOCCCNC(=O)c1nnn2cc(-c3ccccc3)[nH]c(=O)c12,–,active: 17.8 µM
CCOC(=O)c1c(NC(=O)C2C3C=CC(CC3)C2C(=O)O)sc(C)c1C (stereo not given),–,"inconclusive: 112 µM [inhibitor, partial curve, poor fit]"
O=Cc1ccc(CN2CCSCC2)o1,–,"inconclusive: 126 µM [inhibitor, single point]"
COc1ccccc1CN(C)CC(=O)Nc1ccccc1-c1ccccc1,inactive: 10.5%,–
COC(=O)CNC(=O)c1ccc(NS(=O)(=O)c2cc([N+](=O)[O-])ccc2Cl)cc1,inactive: -14.3%,–
Brc1cccc(-c2noc(Cc3ccccc3)n2)c1,–,"inconclusive: 35.5 µM [inhibitor, partial curve, poor fit]"
COc1ccc(/C=C2\Oc3cc(OC(=O)C(C)(C)C)ccc3C2=O)c(OC)c1OC,inconclusive: -51% [inhibitor],–
COc1ccc(CCNC(=O)CCCn2c(=O)c3ccccc3n(CC(=O)Nc3cc(Cl)ccc3C)c2=O)cc1OC,–,"inconclusive: 141 µM [inhibitor, single point]"
O=C(C1CCCC1)N1CCC2(CN[S+](=O)([O-])c3ccccc3N2)C1 (stereo not given),inactive: 48.8%,–
O=c1[nH]cc(COCC(F)CCl)c(=O)[nH]1 (stereo not given),inactive: -1.37%,–
COc1ccc(S(=O)(=O)NCCc2csc(-c3cccc(F)c3)n2)cc1C,–,"inconclusive: 44.7 µM [inhibitor, partial curve, poor fit]"
Cc1cc(C)cc(NC(=O)Nc2ccc3c(c2)N(C)C(=O)CS3)c1,inactive: 0.606%,–
COc1ccc(NC(=O)CN(c2ccccc2F)S(=O)(=O)c2ccc(C)cc2)c(OC)c1,–,"inconclusive: 79.4 µM [inhibitor, single point]"
O=C(Cc1ccc(F)cc1)N1CCN(c2ncnc3c2nnn3-c2ccc(F)cc2)CC1,inconclusive: -33.8% [inhibitor],–
C[C@H]1CCC(=O)N([C@H](CC#N)Cc2ccccc2)CC1,inactive: 0.471%,–
CCOCCCNC(=O)c1ccc(OCC)c(OCC)c1,inactive: 8.52%,–
Cc1cc(C(=O)COC(=O)c2ccc(Cl)c(S(N)(=O)=O)c2)c(C)n1C1CC1,inactive: -39.3%,–
CCNC(=O)c1ccc2c(c1)C1(CCN(CC3CC3)C1)CN2Cc1ccccc1 (stereo not given),–,"inconclusive: 56.2 µM [inhibitor, partial curve]"
C=CCn1cc(/C=N/Nc2nc3ccccc3[nH]2)c2ccccc21,–,"inconclusive: 79.4 µM [inhibitor, partial curve, poor fit]"
Cc1nnc(N/N=C\c2ccc(-c3ccccc3[N+](=O)[O-])o2)n1N,inactive: 0.447%,–

Compound,"activity change, negative = inhibition",Potency
COCC(=O)N1CCN2C(=O)c3cc(-c4cccc(C(F)(F)F)c4)ccc3NC(=O)[C@H]2C1,inactive: -5.48%,–
COC(=O)[C@@H]1Cc2ncn(Cc3ccc(Cl)cc3)c2CN1Cc1cccs1,inactive: 28.3% [at 176 µM],–
Cc1nc(NCc2ccco2)nc2c1C(=O)CC(C)C2 (stereo not given),–,"inconclusive: 39.8 µM [inhibitor, partial curve]"
CCOc1cc(C2C3=C(CCCC3=O)Nc3nc(C(=O)OC)nn32)ccc1OC (stereo not given),–,"inconclusive: 39.8 µM [inhibitor, partial curve, poor fit]"
CN1CCN(C(=O)c2cc(COc3ccc(F)cc3Cl)on2)CC1c1ccccc1 (stereo not given),inactive: 22.1%,–
Cc1ccc(NC(=O)COC(=O)Cn2ccc(C(F)(F)F)n2)cc1Cl,–,"inconclusive: 20 µM [inhibitor, single point]"
CCN(CC)C(=O)CSC1=Nc2ccccc2C2=NC(c3ccccc3)C(=O)N12 (stereo not given),inactive: -20.5%,–
O=S(=O)(c1ccccc1F)N1CCC(Oc2ccc(-n3cnnn3)cc2)CC1,–,"inconclusive: 158 µM [inhibitor, partial curve, poor fit]"
COC(=O)[C@@H]1Cc2c([nH]c3ccccc23)[C@H]2C[C@@H](NC(C)C)C[C@@H](c3ccccc3)N21,–,"inconclusive: 44.7 µM [inhibitor, full curve, poor fit]"
c1ccc(-c2cc3ccccn3c2)cc1,–,"inconclusive: 4.47 µM [inhibitor, full curve, poor fit]"
Cc1cc(C(=O)Cn2cnc3cc(F)ccc3c2=O)c(C)n1C1CC1,–,"inconclusive: 100 µM [inhibitor, single point]"
CCn1c(SCC(=O)Nc2ccc(OC)cc2)nc2nc3c(cc2c1=O)COC(C)(C)C3,–,"inconclusive: 112 µM [inhibitor, single point] and inconclusive: 126 µM [inhibitor, single point]"
CC(C)c1ccccc1NC(=O)Cc1ccc2c(c1)CCC2,–,"inconclusive: 31.6 µM [inhibitor, single point]"
O=C(NC(c1ccc(F)cc1)c1ccc2ccccc2n1)C1CCN(CCOc2ccc(Cl)cc2)CC1 (stereo not given),–,"inconclusive: 44.7 µM [inhibitor, partial curve]"
CCC1=C(OC(=O)N(CC)CC)N2C(=O)OC(=NCCc3c[nH]c4ccccc34)[C@]2(Cc2ccccc2)[C@H]2C1=CC[C@H]1C(=O)NC(=O)[C@H]12,inconclusive: -41.6% [inhibitor],–
Cc1cc([N+](=O)[O-])c2ccccc2c1NS(=O)(=O)c1ccccc1,–,"inconclusive: 50.1 µM [inhibitor, single point]"
CCNC(=O)NC(=O)C(C)Sc1nc(-c2ccccc2)c(-c2ccccc2)o1 (stereo not given),–,"inconclusive: 1.58 µM [inhibitor, full curve, poor fit]"
CC(=O)OC(C(=O)Nc1nccs1)c1ccccc1 (stereo not given),–,"inconclusive: 35.5 µM [inhibitor, partial curve, poor fit]"
Cc1ccc(F)c(S(=O)(=O)NC(=O)C2(C)CCN2C(=O)c2ccco2)c1 (stereo not given),–,"inconclusive: 31.6 µM [inhibitor, partial curve, poor fit]"
O=S(=O)(c1cccc(Cl)c1Cl)N1CCN(C(=S)NCCCN2CCOCC2)CC1,–,"inconclusive: 39.8 µM [inhibitor, partial curve]"
COc1cccc(NC(=O)c2cc(-c3ccco3)nc3ccccc23)c1,–,"inconclusive: 22.4 µM [inhibitor, partial curve, poor fit]"
Cc1cc(NS(=O)(=O)c2ccc(NC(=O)NC(C)(C(F)(F)F)C(F)(F)F)cc2)no1,inactive: 5.04%,–

# For reference, some entries already given.
Compound,"activity change, negative = inhibition",Potency
COC(=O)[C@@H]1Cc2c([nH]c3ccccc23)[C@H]2C[C@@H](NC(C)C)C[C@@H](c3ccccc3)N21,–,"inconclusive: 44.7 µM [inhibitor, full curve, poor fit]"
c1ccc(-c2cc3ccccn3c2)cc1,–,"inconclusive: 4.47 µM [inhibitor, full curve, poor fit]"
Cc1cc(C(=O)Cn2cnc3cc(F)ccc3c2=O)c(C)n1C1CC1,–,"inconclusive: 100 µM [inhibitor, single point]"
CCn1c(SCC(=O)Nc2ccc(OC)cc2)nc2nc3c(cc2c1=O)COC(C)(C)C3,–,"inconclusive: 112 µM [inhibitor, single point] and inconclusive: 126 µM [inhibitor, single point]"
CC(C)c1ccccc1NC(=O)Cc1ccc2c(c1)CCC2,–,"inconclusive: 31.6 µM [inhibitor, single point]"

# Next part.

Compound,"activity change, negative = inhibition",Potency
O=c1[nH]c(CN2CCN(S(=O)(=O)c3ccccc3C(F)(F)F)CC2)nc2sc3c(c12)CCCC3,inactive: 5.66%,–
CSCCCN1CC(Oc2cccc(C(=O)N3CCCC3)c2)C1,–,"inconclusive: 14.1 µM [inhibitor, full curve]"
O=C(CC1NC(=O)NC1=O)Nc1ccc(Cl)cc1 (stereo not given),–,"inconclusive: 112 µM [inhibitor, single point]"
CCC(C)(C)n1nnnc1C(c1cc2cc(C)ccc2[nH]c1=O)N1CCCC1 (stereo not given),inactive: 4.55%,–
CN(CCc1ccc(Cl)c(Cl)c1)C[C@@H](O)COc1ccc(NS(C)(=O)=O)cc1,–,"inconclusive: 31.6 µM [inhibitor, partial curve, poor fit]"
CN(C)/C=N/C(=S)Nc1ccc(Cl)cc1Cl,–,"inconclusive: 56.2 µM [inhibitor, partial curve, poor fit]"
CCOC(=O)C(CCc1ccccc1)NC1CCc2ccccc2N(CC(=O)O)C1=O (stereo not given),–,"inconclusive: 25.1 µM [inhibitor, partial curve, poor fit]"
Cn1c(COc2ccccc2Cl)n[nH]c1=S,–,"inconclusive: 112 µM [inhibitor, partial curve, poor fit]"
CC(=O)Oc1ccc2c(=O)c(/C=N/c3cc(=O)[nH]c(=S)[nH]3)coc2c1,–,"inconclusive: 39.8 µM [inhibitor, partial curve, poor fit]"
Cc1ccc2cc3cc(C(=O)NCCCN4CCCC4)oc3nc2c1,–,"inconclusive: 8.91 µM [inhibitor, partial curve, poor fit]"
Cc1ccc2oc(=O)c3cnn(CC(=O)N4CCN(c5cc(Cl)ccc5C)CC4)c3c2c1,inactive: -2.27%,–
CN(CCN1CCOCC1)C(=O)c1cc(COc2ccc(F)c(F)c2)on1,–,"inconclusive: 50.1 µM [inhibitor, partial curve, poor fit]"
COc1cccc(CNc2nc3c(-c4ccccc4)nnn3c3ccccc23)c1,–,"inconclusive: 158 µM [inhibitor, single point]"
CN(Cc1c(O)ccc2c1oc(=O)c1ccccc12)C1CCCCC1,–,active: 0.891 µM
COc1ccc(-c2nn(C)c(=O)c3ccccc23)cc1NC(=O)c1ccccc1Cl,–,"inconclusive: 1.41 µM [inhibitor, full curve, poor fit]"
Cc1ccc(C(=O)Nc2ccc3oc(-c4ccc(F)cc4)nc3c2)cc1,–,"inconclusive: 50.1 µM [inhibitor, partial curve, poor fit]"
COc1ccc(CN2CCN(S(=O)(=O)c3ccc(F)cc3)CC2)cc1OC,–,"inconclusive: 0.631 µM [inhibitor, full curve, poor fit]"
COc1ccccc1NC(=O)NC[C@H]1O[C@H](Cc2cc(COc3ccccc3)on2)CC[C@@H]1O,–,"inconclusive: 79.4 µM [inhibitor, partial curve, poor fit]"
Cc1ccc(CNC(=O)C23CCC(=O)N2CCS3)cc1 (stereo not given),inactive: 0.0577%,–
COc1ccc(Nc2nnc(-c3ccc(C(N)=O)cc3)c3ccccc23)cc1,–,"inconclusive: 44.7 µM [inhibitor, single point]"
O=S(=O)(c1cc(F)ccc1F)N1CCN(Cc2cccc3cccnc23)CC1,–,active: 15.8 µM
